Experimental data from PubChem BioAssay AID1671190 (National Center for Advancing Translational Sciences (NCATS), 2021).
Screen size: about 580,000 compounds; about 6,100 (1.1%) were called active. The inconclusive results got no clear call from the source; some entries with a clear call stand among them for comparison. Calls follow the shape of the dose curve; as a rule, active = well fitted inhibition curve with a large enough effect; inconclusive = small, poorly fitted or top-dose-only effect, or another doubt; inactive = no such curve, though single readings can be large or run the other way. A potency beside an inconclusive call is a rough fit, not a confirmed value.

Protein sequences, listed by entry. Tags and fused reporters are not part of them. Lines headed by an entry give the natural chain unless they say otherwise; changes in a name come on top.
UniProt P18054: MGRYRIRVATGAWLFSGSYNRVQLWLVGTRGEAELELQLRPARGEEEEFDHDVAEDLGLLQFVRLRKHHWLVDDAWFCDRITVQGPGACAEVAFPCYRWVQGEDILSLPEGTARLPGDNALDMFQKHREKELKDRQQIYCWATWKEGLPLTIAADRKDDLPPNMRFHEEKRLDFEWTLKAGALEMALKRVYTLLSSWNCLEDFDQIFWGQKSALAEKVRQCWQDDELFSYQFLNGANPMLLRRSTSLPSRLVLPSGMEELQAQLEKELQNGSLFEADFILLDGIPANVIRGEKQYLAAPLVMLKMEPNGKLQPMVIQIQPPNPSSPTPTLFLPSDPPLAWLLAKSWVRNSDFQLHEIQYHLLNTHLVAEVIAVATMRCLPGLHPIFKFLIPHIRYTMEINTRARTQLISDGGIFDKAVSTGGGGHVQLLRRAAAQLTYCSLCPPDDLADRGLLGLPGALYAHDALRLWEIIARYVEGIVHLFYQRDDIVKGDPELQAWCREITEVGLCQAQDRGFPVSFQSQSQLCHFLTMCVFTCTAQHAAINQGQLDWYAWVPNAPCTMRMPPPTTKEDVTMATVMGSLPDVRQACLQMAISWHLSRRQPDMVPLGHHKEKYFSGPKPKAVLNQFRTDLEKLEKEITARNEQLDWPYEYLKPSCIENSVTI

biological target: Polyunsaturated fatty acid lipoxygenase ALOX12 (Homo sapiens) (UniProt P18054); assay: Primary qHTS assay for inhibitors of human arachidonate 12S-lipoxygenase (ALOX12): Round 2; conditions: purified 12hLO, xylenol orange hydroperoxide absorbance; activity change, negative = inhibition: at 108 µM (top of the series) unless noted
Method in brief: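 Hydroperoxide product was detected by ferrous iron/xylenol orange as the 573 to 405 nm absorbance ratio. Arachidonic acid at 40 uM (final) was turned over for 30 min at room temperature by 150 nM human 12hLO, pH 7.0 Hepes buffer, after 15 min compound preincubation.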
% is scaled to controls: 0 for no effect and ±100 for the full control effect; potency is read from the fitted curve at half-maximal effect.

SMILES	Potency	activity change, negative = inhibition
CCOc1cc2ccccc2cc1C(=O)Nc1ccc2oc(C)nc2c1	inactive	–
O=c1c2ccccc2nc(-c2ccoc2)n1CCc1ccccc1	inconclusive: 35.5 µM [inhibitor, single point]	–
Cc1oc(-c2ccccc2)nc1CC(=O)Nc1ccc(S(=O)(=O)NC2CC2)cc1	inconclusive: 0.251 µM [inhibitor, full curve, poor fit]	–
Cc1cc2c(c(=O)n(-c3ccccc3)c(=O)n2CC(=O)Nc2ccccc2F)n1C	active: 44.7 µM	–
CCOC(=O)C1=C(C)N(C)C(=S)NC1c1ccccc1 (centres undefined)	inactive	–
Cc1ccccc1N1C(=O)C(Oc2ccc(Cl)cc2)C1CNC(C)(C)C (centres undefined)	inconclusive: 126 µM [inhibitor, partial curve, poor fit]	–
COc1ccc(-c2cnc3c(c2)C(=O)N([C@H](C)CO)C[C@@H](C)[C@@H](CN(C)C(=O)NC2CCCC2)O3)cc1	inconclusive: 20 µM [inhibitor, partial curve, poor fit]	–
O=C(Cn1c(=O)n(-c2cccc(Cl)c2)c(=O)c2sc3ccccc3c21)N1CCCC1	inconclusive: 56.2 µM [inhibitor, partial curve, poor fit]	–
CC(=O)c1cccc(NC(=O)c2ccccc2SCc2cccs2)c1	inconclusive: 50.1 µM [inhibitor, partial curve, poor fit]	–
CC1C(=O)N(Cc2cn(CCC3OCCCO3)nn2)CCS(=O)(=O)N1Cc1ccc(-c2ccc(Cl)cc2)cc1 (centres undefined)	inconclusive: 112 µM [inhibitor, single point]	–
COc1ccc(Cc2c(C(C)(C)C)nc3ccc(Cl)cn23)c(C)c1	inconclusive: 70.8 µM [inhibitor, single point]	–
COCCNC(=O)CSc1nc2ccccc2c(=O)n1CCCC(=O)NCc1ccccc1	inactive	–
CC(=O)c1ccc(NC(=O)c2c3c(nc4ccccc24)C(=O)N(C2CCCCC2)C3)cc1	inconclusive: 112 µM [inhibitor, partial curve, poor fit]	–
Nc1cc(=O)[nH]c(SCc2cccc3ccccc23)n1	inconclusive: 2.24 µM [inhibitor, full curve, poor fit]	–
O=c1oc2ccc(Cl)cc2cc1S(=O)(=O)N1CCCCC1	inconclusive: 17.8 µM [inhibitor, partial curve, poor fit]	–
COc1ccc([N+](=O)[O-])cc1COc1cc(C)cc2oc(=O)cc(-c3ccccc3)c12	inactive	–
ClCC(Cl)C[n+]1cccc2ccccc21 (centres undefined)	inconclusive: 31.6 µM [inhibitor, partial curve, poor fit]	–
CSCC(=O)N[C@H]1CN(Cc2cn(CCO)nc2C)C[C@@H]1C1CC1	inactive	–
O=C(Nc1ccc(N2CCCC2)cc1)c1ccccc1F	inactive	–
CCn1nccc1C(=O)N1CCCCCC1c1nnc(-c2ccccc2)o1 (centres undefined)	inactive	–
CC(=O)Nc1ccc(-c2csc(NCCc3ccccc3)n2)cc1	inactive	–
Brc1cccc(OCCSc2ncccn2)c1	inactive	–
O=C(OC1CCCCC1)c1ccc(NC(=O)c2ccco2)cc1	inconclusive: 70.8 µM [inhibitor, partial curve, poor fit]	–

SMILES	Potency	activity change, negative = inhibition
O[C@H]1C[C@H](c2ccccc2)N(Cc2cccs2)C[C@@H]1n1cc(-c2ccc(F)cc2)nn1	active: 35.5 µM	–
COCCCn1c(=O)/c(=C\c2ccccc2OC(C)C)s/c1=C(/C#N)C(=O)Nc1ccc(C(=O)O)cc1	inactive	–
CCCNC(=O)N1CCN(Cc2nc(-c3ccc(OC)cc3)oc2C)CC1	inactive	–
COc1ccc(-c2nc(-c3ccccc3)nc3c2CN(C(=O)c2ccc(C)cc2)CC3)cc1	inconclusive: 50.1 µM [inhibitor, partial curve, poor fit]	–
CCn1c(SCC(=O)Nc2nc3ccccc3s2)nc2c(c1=O)SC(C)C2 (centres undefined)	inconclusive: 31.6 µM [inhibitor, single point]	–
COc1ccc(Cl)cc1C(=O)N1CCC2(CC1)CN(C)CCN2C	inactive	–
CCOC(=O)c1sc(=S)n(-c2ccc(F)c(F)c2)c1N	inactive	–
O=C1N(CCCc2ccccc2)c2ccccc2C1(O)c1c[nH]c2ccccc12 (centres undefined)	inconclusive: 50.1 µM [inhibitor, single point]	–
Cc1ccc(SCC(=O)OCC(=O)N(CCC#N)c2ccccc2)cc1C	inactive	–
CS(=O)(=O)N(Cc1csc(-c2cccs2)n1)C1CCN(C(=O)c2c(F)cccc2F)CC1	inactive	–
Cc1cnc(CNc2ccnc(-c3ccccc3Cl)n2)cn1	inconclusive: 3.98 µM [inhibitor, full curve]	–
Cc1cccc(N2CCN(C(=O)c3ccc4c(c3)OCCO4)CC2C)c1 (centres undefined)	inactive	–
Cc1ccccc1OCCOC(=O)c1n[nH]c(=O)c2ccccc12	inconclusive: 20 µM [inhibitor, full curve, poor fit]	–
C#CCCc1cocc1/C=[N+](\[O-])c1ccc(C(=O)OCC)cc1	inconclusive: 44.7 µM [inhibitor, partial curve, poor fit]	–
O=C(c1cc(F)ccc1F)N1CCCC(Cc2nncn2CC2CC2)C1 (centres undefined)	inconclusive: 25.1 µM [inhibitor, partial curve]	–
O=C(CN1C(=O)CC(c2ccco2)Sc2ccccc21)NC1CCCCC1 (centres undefined)	inactive	–
CCOC(=O)c1ccc(S(=O)(=O)N2CCN(C(=O)c3cccc(S(=O)(=O)N4CC(C)OC(C)C4)c3)CC2)cc1 (centres undefined)	inactive	–
FC(F)(F)c1nc(=S)c2ccccc2[nH]1	active: 28.2 µM	–
N/C(CCS(=O)(=O)c1ccc(Cl)cc1)=N\OC(=O)c1ccc(Cl)cc1	inactive	–
C#CCN(C[C@@H]1[C@@H](OC(=O)Nc2cccs2)[C@@H](OC(=O)Nc2cccs2)Cn2c(=O)n(CCCCCC)c(=O)n21)S(=O)(=O)c1ccc(C)cc1	active: 10 µM	–
O=S(=O)(c1ccc(Cl)nc1)N1CCCCC1	inconclusive: 79.4 µM [inhibitor, partial curve, poor fit]	–
COC(=O)[C@@H]1Cc2ncn(C)c2CN1S(=O)(=O)c1ccc(C#N)cc1	inconclusive: 50.1 µM [inhibitor, full curve, poor fit]	–
O=C(/C=C/c1ccc(S(=O)(=O)N2CCOCC2)cc1)NC(=S)Nc1ccc(Cl)cc1Cl	inactive	–

SMILES	Potency	activity change, negative = inhibition
NC(=O)c1sc2nc(-c3ccccc3)ccc2c1N	inconclusive: 31.6 µM [inhibitor, single point]	–
c1cncc(-c2nn3c(Cn4nnc5ccccc54)nnc3s2)c1	inconclusive: 44.7 µM [inhibitor, partial curve, poor fit]	–
CCOC(=O)[C@]12CCCC=C1N(Cc1ccc(Cl)cc1Cl)C(=O)[C@H](CC(=O)NCCc1ccccc1OC)C2	inconclusive: 3.16 µM [inhibitor, full curve, poor fit]	–
Cc1ccccc1-c1cc(C(=O)Nc2nc3c(s2)CCCC3)c2ccccc2n1	inconclusive: 44.7 µM [inhibitor, partial curve, poor fit]	–
Cc1ccc(NC2=NCCCCC2)cc1C	–	inconclusive: -33.1% [inhibitor]
Cc1cc2c(cc(C(=O)NCc3cccnc3)n2Cc2ccc(Cl)cc2)o1	inconclusive: 39.8 µM [inhibitor, partial curve, poor fit]	–
CCOC(=O)c1csc(N/N=C2\CCCc3ccccc32)n1	inconclusive: 89.1 µM [inhibitor, single point]	–
CCC1=NN(C(=O)c2ccc(Cl)cc2)C(O)(c2ccc(C)cc2)C1 (centres undefined)	inconclusive: 39.8 µM [inhibitor, partial curve, poor fit]	–
CCCn1c(=O)[nH]c(=O)c2c1nc(-c1ccc(OC)c(C)c1)n2CCOC	inconclusive: 2 µM [inhibitor, full curve, poor fit]	–
COc1ccc(S(=O)(=O)Oc2ccc3c(c2)O/C(=C\c2ccc(C)cc2)C3=O)cc1	inactive	–
C[C@H](NC(=O)c1[nH]cnc1C(=O)Nc1ccc(Cl)cc1)c1ccccc1	active: 44.7 µM	–
Cc1nc(C(F)(F)F)ccc1C(=O)N1CCC1(C)C(=O)NS(=O)(=O)c1c(C)noc1C (centres undefined)	inconclusive: 35.5 µM [inhibitor, single point]	–
CC(=O)Oc1ccccc1C(=O)C=Cc1cccc([N+](=O)[O-])c1	inactive	–
Cc1nc(C)c(C(=O)N2CCC(N3C(=O)C4(CCCC4)C3c3ccccc3)CC2)s1 (centres undefined)	inactive	–
O=C1CCCC2=C1C(c1ccc(Cl)cc1)C1C(=O)c3ccccc3C1=N2 (centres undefined)	inconclusive: 44.7 µM [inhibitor, partial curve, poor fit]	–
CC(C)c1ccc(S(=O)(=O)N2CCN(C(=O)c3cncn3-c3ccc(F)cc3)CC2)cc1	inactive	–
Cc1ccc(/C(O)=C2/C(=O)C(=O)N(c3ccccn3)C2c2cccc([N+](=O)[O-])c2)cc1 (centres undefined)	inconclusive: 35.5 µM [inhibitor, single point]	–
COc1cccc(CC(=O)Nc2ncc(C)s2)c1	inconclusive: 6.31 µM [inhibitor, full curve, poor fit]	–
O=C(CNC(=O)c1cc(Cl)cc([N+](=O)[O-])c1)OCC(=O)N1CCCCC1	inactive	–
COC(=O)[C@]12CCCCC=C1N(Cc1ccco1)C(=O)[C@H](CC(=O)NCC1CCCCC1)C2	inconclusive: 112 µM [inhibitor, single point]	–
O=c1cc(CNCc2ccccc2)c2ccccc2[nH]1	inactive	–
CCCOc1ccc(/C(O)=C2/C(=O)C(=O)N(CCCn3ccnc3)C2c2ccc(C)o2)cc1 (centres undefined)	inconclusive: 15.8 µM [inhibitor, partial curve, poor fit]	–
O=c1cc(CN2CCN(Cc3ccccc3)CC2)c2cc3c(cc2o1)CCC3	inconclusive: 100 µM [inhibitor, partial curve, poor fit]	–
